The values that follow come from PubChem BioAssay AID1458 (National Center for Advancing Translational Sciences (NCATS), 2008).

About 5,900 (2.8%) of roughly 210,000 compounds were called active. Not shown: some 5% with an inconclusive outcome. The call rests on the fitted dose curve; in most records, active means well fitted activation curve with a large enough effect; inconclusive means small, poorly fitted or top-dose-only effect; inactive means no such curve, though single readings can be large or run the other way. Only a part is listed here, and it is no random draw. Where no call is shown, the source filed none.
Potency means the concentration at half of the fitted maximal effect.

A short description of this assay: qHTS Assay for Enhancers of SMN2 Splice Variant Expression. Further: nearly all actives have a fitted effect of over 55% in size. On activity change, positive = activation: % of control where 0% means no effect. The note with it: HEK293 SMN2-luciferase splicing reporter, luminescence, 30-36 h; activity change, positive = activation: at 46.1 µM (top of the series) unless noted. In outline: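 qHTS luciferase splicing reporter: luminescence rises when SMN2 exon 7 is included in transfected HEK293 cells. Compound exposure lasted 30-36 h at 37C, with 4.5 mM final sodium butyrate as control, followed by a ONE-Glo read.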
`Cn1cnnc1SCC(=O)NNC(=O)COc1ccc(Br)cc1`: the activity change, positive = activation amounted to 30%.
Consider `Oc1ccccc1-c1cc(-c2ccccc2Cl)[nH]n1`, for which the Potency was active: 3.55 µM.
Take `COc1cc(OC)c(NC(=O)Cn2ncn3c(cc4cc(C)ccc43)c2=O)cc1Cl`: the activity change, positive = activation is 42.9%.
Still for that read-out and setting: the value for `COc1ccc(CNC(=O)C2CCN(S(=O)(=O)c3cc(OC)ccc3OC)CC2)cc1` was 25.7%; that for `COc1cc(-c2nn3c(-c4cccc(C)c4)nnc3s2)cc(OC)c1OC` was 22.2%; that for `COC(=O)C(C)N1C(=O)S/C(=C\c2cc(C)n(-c3ccccn3)c2C)C1=O` (stereo unspecified) was inactive: -58.7%.
Still for that read-out and setting: the value for `Cc1nc2nc(CNC(=O)c3cccc(F)c3)nn2c(C)c1CCC(=O)Nc1cccc(Cl)c1` was -31.6%.
For `COc1ccc(C2CCCN2C(=S)Nc2cccc(Cl)c2C)cc1OC` (stereo unspecified), the “activity change, positive = activation” value was inactive: -80.3%.
On the same count and under the same terms, to `Cc1[nH]c2c(Br)cccc2c1[C@H]1[C@@H](CC#N)C1(C)C` belongs -31.4%.
`COC(=O)C1C(=O)c2c([nH]c(C(=O)OC3CCCC3C)c2C)CC1C` (stereo unspecified): the Potency is active: 11.2 µM.
On to `O=C(Nc1cccc2ccccc12)c1ccc(Br)o1`, for which the activity change, positive = activation was 32.1%.
Still for that read-out and setting: to `COc1ccc(/C=C(\C#N)C(=O)OCC(=O)Nc2ccc(C(C)(C)C)cc2)cc1` belongs 26.5%.
On the same count and under the same terms, to `CC(=O)c1cc2c(cc1NC(=O)c1ccc(C)cc1)OCO2` belongs 33.1%.
Still for that read-out and setting: the value for `CC(C(=O)NCC1(c2ccccc2)CCCC1)N1CCOCC1` (stereo unspecified) was 36.7%; that for `COc1ccccc1C(=O)NC(=S)NNC(=O)c1sc2ccccc2c1Cl` was -67.8%; that for `COc1ccc(-c2noc(CSc3nc4ccc(C)cc4[nH]3)n2)cc1` was inactive: -46.7%.
`CC1CCN(c2nc3ccc(C(=O)NC(C)C)cc3s2)CC1`: the Potency was active: 0.794 µM.
Take `Cc1ccc(NC(=S)NCc2ccc3[nH]c4c(c3c2)CCCC4)cc1`: the activity change, positive = activation is -23.9%.
Same read-out and setting: to `CCN(CC)CCn1c(=N)n(CC(O)COc2cccc(C)c2)c2ccccc21` (stereo unspecified) belongs inactive: -92%.
Same read-out and setting: to `COc1cccc(C(=O)Nc2cccc(C(C)=O)c2)c1` belongs 88.7%; to `O=C(C[n+]1cccc2ccccc21)c1ccccc1`, 22.3%.
Consider `COc1ccc(/C=C/C(=O)C23CC4CC(CC(C4)C2)C3)cc1CN1CCOCC1`, for which the “activity change, positive = activation” value was inactive: -55.7%.
In the case of `CS(=O)(=O)Nc1ccc(C(=O)NCCc2ccccc2)cc1`, the Potency was active: 11.2 µM.
`CCOC(=O)CCc1c(C)c2ccc(OCC(=O)N(CC)CC)c(C)c2oc1=O`: the activity change, positive = activation turned out to be 27.4%.
The same measure, in the same setting: to `NC(=O)Nn1c(CCC(=O)O)ccc1-c1ccc(Br)cc1` belongs 32.5%.
Turning to `Cc1ccc(OCc2nnc(SCC(=O)Nc3cc(C)on3)n2C)cc1`, the activity change, positive = activation stood at 15%.
The same measure, in the same setting: the value for `Cc1ccc(NC(=O)C2=C(c3ccccc3)S(=O)(=O)CCS2(=O)=O)cc1` was inactive: -44.9%; that for `C=CCOc1ccc(/C(CC)=N/O)c(OC)c1` was 54.6%.
On to `O=C(CN(C(=O)CNS(=O)(=O)c1ccccc1)C1CCCC1)NCC1CCCO1` (stereo unspecified), for which the activity change, positive = activation was 33.9%.
On the same count and under the same terms, to `CC(C)(C)NC(=S)Nc1ccc(Nc2ccccc2)cc1` belongs inactive: -36.1%.
On to `O=C(NCCc1ccc(F)cc1)c1ccc([N+](=O)[O-])cc1`, for which the Potency is active: 11.2 µM.
With `COc1ccc(-c2ccc(-c3nc4c(c(=O)[nH]c(=O)n4Cc4ccccc4)n3C)o2)c([N+](=O)[O-])c1`, the activity change, positive = activation is -54.5%.
Same read-out and setting: the value for `O=S(=O)(NCCc1csc(-c2cccnc2)n1)c1ccc(Cl)s1` was inactive: -37%.
The same measure, in the same setting: to `COCCCNS(=O)(=O)c1ccc(Oc2ncc(C(F)(F)F)cc2Cl)cc1` belongs inactive: -67.4%; to `CCOC(=O)C1CCCN(CCC(=O)Nc2ccc(F)c(F)c2)C1` (stereo unspecified), 46.2%; to `CCOc1cc(S(=O)(=O)NCc2cccs2)ccc1Cl`, 26.2%.
As to `CC1CN/C(=C\C(=O)c2ccc(Br)cc2)C(=O)N1` (stereo unspecified), the activity change, positive = activation was -42.3%.
Still for that read-out and setting: the value for `CN1CCc2c(sc3nc(SCC(N)=O)n(-c4ccccc4)c(=O)c23)C1` was 74.4%.
On to `CC1CCCN(C(=O)c2ccc(CSc3nc4ccncc4n3Cc3ccccc3)cc2)C1` (stereo unspecified), for which the “activity change, positive = activation” value is inactive: -32.6%.
Take `Cc1nc(NC(=O)C2CCCCC2)sc1C`: the Potency is active: 20 µM.
Turning to `Cc1ccc(S(=O)(=O)Nc2ccccc2CNc2ccccn2)cc1`, the activity change, positive = activation is inactive: -13.4% [at 1.84 µM].
The same measure, in the same setting: the value for `CCCN(CC1CC1)C(=O)Nc1ccccc1C` was 41.1%; that for `Cc1ccc(N=Nc2ccc(O)c3ncccc23)cc1C` was -33.1%.
Same read-out and setting: to `COc1ccc(CCn2c(C)cc(C(=O)CSc3nc(N)cc(=O)[nH]3)c2C)cc1` belongs -48.9%.
Consider `O=C(Cc1cccs1)Nc1ccccc1C(=O)O`, for which the Potency was active: 10 µM.
For the compound `Clc1ccccc1CSc1ncccn1`, the activity change, positive = activation was found to be 45.1%.
On the same count and under the same terms, to `COC(=O)c1ccc(CSc2nc3ccccc3c(=O)n2Cc2ccco2)o1` belongs -64.9%.
Still for that read-out and setting: to `O=C(Nc1nc2cc3c(cc2s1)OCCO3)c1cccc(S(=O)(=O)N2CCOCC2)c1` belongs inactive: -46.1%.
`CCOC(=O)c1sc(=NC(=O)c2cccs2)n(C)c1C`: the Potency is active: 3.16 µM.
As for `O=C1/C(=C/N(C(=O)c2ccco2)c2ccc(Br)cc2)Sc2ccccc21`, the activity change, positive = activation amounted to 137%.
On the same count and under the same terms, to `CCOC(=O)c1ccc(Oc2c(C)oc3cc(OS(C)(=O)=O)ccc3c2=O)cc1` belongs -49.3%.
On the same count and under the same terms, the value for `Cc1cc(C)c(C2=NOC3C4CCC(C4)C23)c(C)c1` (stereo unspecified) was inactive: -34.4%; that for `N#CC(C(N)=O)=C1CCC2(CC1)OCCCCO2` was 22.9%.
Regarding `Cc1cccc(C(=O)NCCc2csc(C)n2)c1`, the Potency is active: 1.58 µM.
Still for that read-out and setting: the value for `O=C(CNC(=O)C1CCCCC1)Nc1ccc(Cl)cc1` was active: 11.2 µM.
Consider `CCOC(=O)c1c(NC(=O)CSc2nncs2)sc(C)c1-c1ccccc1`, for which the activity change, positive = activation was -54.1%.
